Reference: the supplement of paper PMC12823440, “Inhibitors supercharge kinase turnover through native proteolytic circuits” (Nature, 2025)
Some of the results follow. Hit calls seldom repeat between salt and free forms of one compound.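 Kinases, fused to nanoluciferase, were expressed in K562 cells; luminescence was measured every 4 h from 2 to 18 h as percent of control (DMSO = 100%, positive control = 0%). A time point is decreased if signal falls significantly (2 sigma). Hits were called by the authors by a rule that is not shown; the count of time points alone does not decide it.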

Chains of the proteins cited; added tags and fusions are not shown.
UniProt P36888, whole entry: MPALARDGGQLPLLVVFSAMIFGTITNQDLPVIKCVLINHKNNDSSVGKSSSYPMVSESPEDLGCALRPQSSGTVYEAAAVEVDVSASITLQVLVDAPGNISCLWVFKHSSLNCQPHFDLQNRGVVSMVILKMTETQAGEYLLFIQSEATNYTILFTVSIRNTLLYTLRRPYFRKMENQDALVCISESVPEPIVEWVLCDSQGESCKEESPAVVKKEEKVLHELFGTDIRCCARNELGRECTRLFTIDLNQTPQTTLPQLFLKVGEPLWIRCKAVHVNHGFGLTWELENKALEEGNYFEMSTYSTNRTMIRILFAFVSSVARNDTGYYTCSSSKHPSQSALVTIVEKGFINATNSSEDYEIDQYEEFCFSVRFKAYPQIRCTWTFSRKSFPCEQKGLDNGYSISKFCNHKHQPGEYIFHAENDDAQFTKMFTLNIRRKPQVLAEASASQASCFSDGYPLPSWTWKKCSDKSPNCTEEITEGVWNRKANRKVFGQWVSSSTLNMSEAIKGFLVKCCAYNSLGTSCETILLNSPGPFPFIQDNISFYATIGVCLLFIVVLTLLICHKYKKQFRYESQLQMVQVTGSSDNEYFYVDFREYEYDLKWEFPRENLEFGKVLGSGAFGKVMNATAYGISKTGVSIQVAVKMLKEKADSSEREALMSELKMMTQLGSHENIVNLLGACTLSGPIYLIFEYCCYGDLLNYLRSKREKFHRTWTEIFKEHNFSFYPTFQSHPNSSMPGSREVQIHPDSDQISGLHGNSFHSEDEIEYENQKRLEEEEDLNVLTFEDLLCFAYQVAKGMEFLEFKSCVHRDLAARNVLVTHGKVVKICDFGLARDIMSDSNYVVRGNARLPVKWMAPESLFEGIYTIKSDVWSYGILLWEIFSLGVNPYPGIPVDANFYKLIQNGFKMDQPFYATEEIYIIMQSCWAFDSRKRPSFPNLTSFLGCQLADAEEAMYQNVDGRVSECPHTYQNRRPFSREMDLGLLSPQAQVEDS
UniProt P06241, whole entry, looked up: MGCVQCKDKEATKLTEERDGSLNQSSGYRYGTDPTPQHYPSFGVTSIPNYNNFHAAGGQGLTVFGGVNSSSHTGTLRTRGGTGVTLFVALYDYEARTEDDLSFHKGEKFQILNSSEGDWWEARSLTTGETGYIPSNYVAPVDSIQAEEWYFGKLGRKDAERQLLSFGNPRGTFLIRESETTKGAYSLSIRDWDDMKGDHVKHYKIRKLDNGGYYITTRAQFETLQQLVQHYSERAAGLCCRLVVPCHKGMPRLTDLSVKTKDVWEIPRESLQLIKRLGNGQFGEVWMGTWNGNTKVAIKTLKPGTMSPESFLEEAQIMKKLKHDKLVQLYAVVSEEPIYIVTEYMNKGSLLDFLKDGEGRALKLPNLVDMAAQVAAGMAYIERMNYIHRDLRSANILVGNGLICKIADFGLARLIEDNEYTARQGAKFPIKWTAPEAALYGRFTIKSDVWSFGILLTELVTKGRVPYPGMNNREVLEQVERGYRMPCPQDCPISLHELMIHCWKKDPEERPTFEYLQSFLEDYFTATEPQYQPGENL

Each compound was assayed against FLT3 (UniProt P36888) (assay: kinase-Nluc reporter destabilization hit call (1 = scored as downregulated) (binary); higher = compound decreases kinase abundance). Conditions: K562; 2-18 h.

SMILES | kinase-Nluc reporter destabilization hit call
CC(=O)c1c(O)c(C)c(O)c(Cc2c(O)c3c(c(C(=O)/C=C/c4ccccc4)c2O)OC(C)(C)C=C3)c1O [Rottlerin] (2 µM) | inactive: 0
CCCS(=O)(=O)Nc1ccc(F)c(-n2cc(-c3cncnc3)c3nc(N(C)C4CCN(CC)CC4)ccc32)c1F (2 µM) | inactive: 0
O=[N+]([O-])/C=C/c1ccc2c(c1)OCO2 (2.5 µM) | inactive: 0
CC(=O)O[C@H]1[C@H]2[C@@H](OC(=O)Cc3ccccc3)[C@@H](C)C[C@]2(OC(C)=O)C(=O)/C(C)=C/[C@@H]2[C@H](CC[C@@]13CO3)C2(C)C [Euphorbiasteroid] (10 µM) | inactive: 0
Cc1[nH]ncc1-c1cc2nc([C@H]3CC4CCN3CC4)[nH]c(=O)c2s1 [(R)-Simurosertib] (10 µM) | inactive: 0
N#CC(C#N)=Cc1ccc(O)c(O)c1 [Tyrphostin 23] (10 µM) | inactive: 0
CC1C(=O)OC2C(O)C34C5OC(=O)C3(OC3OC(=O)C(O)C34C(C(C)(C)C)C5O)C12O (stereo unspecified) [Ginkgolide C] (10 µM) | inactive: 0
COc1ccc2c(c1)/C(=C/c1cnc[nH]1)C(=O)N2 (2.5 µM) | inactive: 0
C[S+]([O-])/C=C/CCN=C=S (stereo unspecified) [Sulforaphene] (10 µM) | inactive: 0
N#CC(C#N)=Cc1ccc([N+](=O)[O-])c(O)c1 (10 µM) | inactive: 0
Cn1cc(C2=C(c3cn(C4CCN(Cc5ccccn5)CC4)c4ccccc34)C(=O)NC2=O)c2ccccc21 [Enzastaurin] (10 µM) | inactive: 0
O=C(/C=C/c1ccccc1)OC[C@H]1O[C@@H](O[C@@H]2OC=C[C@H]3[C@H](O)[C@@H]4O[C@]4(CO)[C@@H]23)[C@H](O)[C@@H](O)[C@@H]1O [Picroside I] (10 µM) | inactive: 0

The compounds below were run against FYN (UniProt P06241) in the same assay as above. Conditions: K562; 2-18 h.

SMILES | kinase-Nluc reporter destabilization hit call
Cc1ccccc1-n1c(Cn2cnc3c(N)ncnc32)nc2cccc(C)c2c1=O (10 µM) | inactive: 0
C=C[C@H]1CN2CC[C@]3(C(=O)Nc4ccccc43)[C@@H]2C[C@@H]1/C(=C\OC)C(=O)OC [Corynoxeine] (2 µM) | inactive: 0
O=C1C=CC[C@@H]2[C@H]3CCCN4CCC[C@@H](CN12)[C@@H]34 [Sophocarpine (monohydrate)] (2.5 µM) | inactive: 0
O=c1ccc2cc(O[C@@H]3O[C@H](CO)[C@@H](O)[C@H](O)[C@H]3O)c(O)cc2o1 [Esculin] (10 µM) | inactive: 0
O=c1[nH]c2ccccc2n1C1CCN(CCCC(c2ccc(F)cc2)c2ccc(F)cc2)CC1 [Pimozide] (2.5 µM) | inactive: 0
C[C@@H]1CC[C@H]2[C@@H](C)C(=O)O[C@@H]3O[C@@]4(C)CC[C@@H]1[C@]32OO4 [Artemisinin] (10 µM) | inactive: 0
COc1ccc2c(c1OC)C(OC)N(C)c1c-2ccc2cc3c(cc12)OCO3 (stereo unspecified) [Angoline] (10 µM) | inactive: 0
C[C@H]1CC[C@]2(NC1)O[C@H]1C[C@H]3[C@@H]4CC[C@H]5C[C@@H](O[C@@H]6O[C@H](CO)[C@H](O[C@@H]7O[C@H](CO)[C@@H](O)[C@H](O[C@@H]8OC[C@@H](O)[C@H](O)[C@H]8O)[C@H]7O[C@@H]7O[C@H](CO)[C@@H](O)[C@H](O)[C@H]7O)[C@H](O)[C@H]6O)CC[C@]5(C)[C@H]4CC[C@]3(C)[C@H]1[C@@H]2C [Tomatine] (2.5 µM) | inactive: 0
CN(C)C(=O)c1ccc(Cn2c(C(=O)O)cc3c(Br)cc(Sc4ccc(Cl)c(Cl)c4)cc32)cc1 [Rheb inhibitor NR1] (10 µM) | inactive: 0
COc1ccc(/C=C/c2cc(OC)c(OC)c(OC)c2)cc1 (2.5 µM) | inactive: 0
C/C(O)=C(\C#N)C(=O)Nc1cc(Br)ccc1Br (10 µM) | inactive: 0
Cc1n[nH]cc1-c1cc2nc([C@@H]3CC4CCN3CC4)[nH]c(=O)c2s1 [Simurosertib] (2.5 µM) | inactive: 0
O=c1[nH]c2ccccc2n1C1CCN(Cc2ccc(-c3[nH]c4cc5ncnc5cc4nc3-c3ccccc3)cc2)CC1 [AKT inhibitor VIII] (2.5 µM) | inactive: 0
CCOC(=O)c1c(/C(C#N)=C\N)c2ccc(Cl)c(Cl)c2n1C (10 µM) | inactive: 0
O=C(N[C@@H](COc1ccc2[nH]c(=O)[nH]c2c1)c1ccccc1)c1cccn(Cc2ccc(F)c(F)c2)c1=O (2.5 µM) | inactive: 0
CC1=C[C@]23C(=O)[C@@H](C=C(CO)[C@@H](O)[C@]2(O)[C@H]1O)[C@H]1[C@@H](C[C@H]3C)C1(C)C [Ingenol] (10 µM) | inactive: 0
N#CC(C#N)=NNc1cccc(Cl)c1 (2.5 µM) | inactive: 0
CC(=O)c1c(O)c(C)c(O)c(Cc2c(O)c3c(c(C(=O)/C=C/c4ccccc4)c2O)OC(C)(C)C=C3)c1O [Rottlerin] (2 µM) | inactive: 0
CCCS(=O)(=O)Nc1ccc(F)c(-n2cc(-c3cncnc3)c3nc(N(C)C4CCN(CC)CC4)ccc32)c1F (2 µM) | inactive: 0
O=[N+]([O-])/C=C/c1ccc2c(c1)OCO2 (2.5 µM) | inactive: 0
CC(=O)O[C@H]1[C@H]2[C@@H](OC(=O)Cc3ccccc3)[C@@H](C)C[C@]2(OC(C)=O)C(=O)/C(C)=C/[C@@H]2[C@H](CC[C@@]13CO3)C2(C)C [Euphorbiasteroid] (10 µM) | inactive: 0
Cc1[nH]ncc1-c1cc2nc([C@H]3CC4CCN3CC4)[nH]c(=O)c2s1 [(R)-Simurosertib] (10 µM) | inactive: 0
N#CC(C#N)=Cc1ccc(O)c(O)c1 [Tyrphostin 23] (10 µM) | inactive: 0
CC1C(=O)OC2C(O)C34C5OC(=O)C3(OC3OC(=O)C(O)C34C(C(C)(C)C)C5O)C12O (stereo unspecified) [Ginkgolide C] (10 µM) | inactive: 0
COc1ccc2c(c1)/C(=C/c1cnc[nH]1)C(=O)N2 (2.5 µM) | inactive: 0
C[S+]([O-])/C=C/CCN=C=S (stereo unspecified) [Sulforaphene] (10 µM) | inactive: 0
N#CC(C#N)=Cc1ccc([N+](=O)[O-])c(O)c1 (10 µM) | inactive: 0
Cn1cc(C2=C(c3cn(C4CCN(Cc5ccccn5)CC4)c4ccccc34)C(=O)NC2=O)c2ccccc21 [Enzastaurin] (10 µM) | inactive: 0
O=C(/C=C/c1ccccc1)OC[C@H]1O[C@@H](O[C@@H]2OC=C[C@H]3[C@H](O)[C@@H]4O[C@]4(CO)[C@@H]23)[C@H](O)[C@@H](O)[C@@H]1O [Picroside I] (10 µM) | inactive: 0
